Experiment [1] deals with VvAGL11 (VvMADS5), BiFC fusion with half of YFP (Vitis vinifera cv. 'Xiangfei') (UniProt F6I457). Kind of experiment: split reporter; BiFC: pSPYNE and pSPYCE fusions (halves of YFP) co-expressed in Nicotiana benthamiana leaves by Agrobacterium co-injection; confocal microscopy 48 h after infiltration.
Experiment [2] concerns the target VvAGL11 (VvMADS5), yeast two-hybrid fusion (Vitis vinifera cv. 'Xiangfei') (UniProt F6I457). Put plainly: two-hybrid; full-length CDSs in pGADT7 and pGBKT7, yeast strain AH109; growth on SD/-Trp/-Leu/-Ade/-His solid medium, positive colonies detected by X-α-Gal.
Experiment [3] deals with VvSEP3 (VvMADS4), BiFC fusion with half of YFP (Vitis vinifera cv. 'Xiangfei') (UniProt Q8LLR0). Kind of experiment: split reporter; BiFC: pSPYNE and pSPYCE fusions (halves of YFP) co-expressed in Nicotiana benthamiana leaves by Agrobacterium co-injection; confocal microscopy 48 h after infiltration.
Experiment [4] has as its target VvSEP3 (VvMADS4), yeast two-hybrid fusion (Vitis vinifera cv. 'Xiangfei') (UniProt Q8LLR0). Put plainly: two-hybrid; full-length CDSs in pGADT7 and pGBKT7, yeast strain AH109; growth on SD/-Trp/-Leu/-Ade/-His solid medium, positive colonies detected by X-α-Gal.

By UniProt entry, the sequences of proteins in these tests, tags left out.
UniProt F6I457: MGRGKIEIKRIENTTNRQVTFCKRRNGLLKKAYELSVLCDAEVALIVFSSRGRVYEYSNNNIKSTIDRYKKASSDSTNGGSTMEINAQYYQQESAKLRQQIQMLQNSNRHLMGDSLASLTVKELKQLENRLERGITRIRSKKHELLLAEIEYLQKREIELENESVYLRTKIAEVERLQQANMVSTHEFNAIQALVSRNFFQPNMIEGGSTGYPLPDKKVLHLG
UniProt Q8LLR0: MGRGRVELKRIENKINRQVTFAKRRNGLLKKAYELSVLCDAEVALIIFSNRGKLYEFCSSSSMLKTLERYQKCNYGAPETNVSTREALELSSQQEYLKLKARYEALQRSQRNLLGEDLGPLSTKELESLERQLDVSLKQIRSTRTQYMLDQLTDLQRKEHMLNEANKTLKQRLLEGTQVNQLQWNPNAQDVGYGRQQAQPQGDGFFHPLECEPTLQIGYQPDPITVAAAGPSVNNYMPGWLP

Results are given in words; binding and its absence hold for the method and conditions named. For part of these data: In cells and extracts the contact can be indirect. Some binding calls cover weakened binding; strength is not graded here.

Turning to “VvAGL11 (VvMADS5), BiFC fusion with half of YFP (from UniProt F6I457 1-223)”, the binding result in experiment [1] is on record as “no binding”. For “VvAGL11 (VvMADS5), yeast two-hybrid fusion (from UniProt F6I457 1-223)”, in experiment [2], the binding entry is reported as “no binding”.

Regarding “VvSEP3 (VvMADS4), BiFC fusion with half of YFP (from UniProt Q8LLR0 1-242)”, the binding entry in experiment [1] and in experiment [3] was “binds” in each case. For the substance “VvSEP3 (VvMADS4), yeast two-hybrid fusion (from UniProt Q8LLR0 1-242)”, the binding result in experiment [2] and in experiment [4] was “binds” each time.

Values taken from PMC8146481.
